Test results reported in the supplement of paper PMC11006884.
This is a selection; strong and weak results do not stand in their true shares.

The chains behind the UniProt entries cited, without tags or fusion partners. Where a name states a change or a piece, a line headed by the entry shows the natural chain unless it says otherwise.
UniProt Q9Y6D5: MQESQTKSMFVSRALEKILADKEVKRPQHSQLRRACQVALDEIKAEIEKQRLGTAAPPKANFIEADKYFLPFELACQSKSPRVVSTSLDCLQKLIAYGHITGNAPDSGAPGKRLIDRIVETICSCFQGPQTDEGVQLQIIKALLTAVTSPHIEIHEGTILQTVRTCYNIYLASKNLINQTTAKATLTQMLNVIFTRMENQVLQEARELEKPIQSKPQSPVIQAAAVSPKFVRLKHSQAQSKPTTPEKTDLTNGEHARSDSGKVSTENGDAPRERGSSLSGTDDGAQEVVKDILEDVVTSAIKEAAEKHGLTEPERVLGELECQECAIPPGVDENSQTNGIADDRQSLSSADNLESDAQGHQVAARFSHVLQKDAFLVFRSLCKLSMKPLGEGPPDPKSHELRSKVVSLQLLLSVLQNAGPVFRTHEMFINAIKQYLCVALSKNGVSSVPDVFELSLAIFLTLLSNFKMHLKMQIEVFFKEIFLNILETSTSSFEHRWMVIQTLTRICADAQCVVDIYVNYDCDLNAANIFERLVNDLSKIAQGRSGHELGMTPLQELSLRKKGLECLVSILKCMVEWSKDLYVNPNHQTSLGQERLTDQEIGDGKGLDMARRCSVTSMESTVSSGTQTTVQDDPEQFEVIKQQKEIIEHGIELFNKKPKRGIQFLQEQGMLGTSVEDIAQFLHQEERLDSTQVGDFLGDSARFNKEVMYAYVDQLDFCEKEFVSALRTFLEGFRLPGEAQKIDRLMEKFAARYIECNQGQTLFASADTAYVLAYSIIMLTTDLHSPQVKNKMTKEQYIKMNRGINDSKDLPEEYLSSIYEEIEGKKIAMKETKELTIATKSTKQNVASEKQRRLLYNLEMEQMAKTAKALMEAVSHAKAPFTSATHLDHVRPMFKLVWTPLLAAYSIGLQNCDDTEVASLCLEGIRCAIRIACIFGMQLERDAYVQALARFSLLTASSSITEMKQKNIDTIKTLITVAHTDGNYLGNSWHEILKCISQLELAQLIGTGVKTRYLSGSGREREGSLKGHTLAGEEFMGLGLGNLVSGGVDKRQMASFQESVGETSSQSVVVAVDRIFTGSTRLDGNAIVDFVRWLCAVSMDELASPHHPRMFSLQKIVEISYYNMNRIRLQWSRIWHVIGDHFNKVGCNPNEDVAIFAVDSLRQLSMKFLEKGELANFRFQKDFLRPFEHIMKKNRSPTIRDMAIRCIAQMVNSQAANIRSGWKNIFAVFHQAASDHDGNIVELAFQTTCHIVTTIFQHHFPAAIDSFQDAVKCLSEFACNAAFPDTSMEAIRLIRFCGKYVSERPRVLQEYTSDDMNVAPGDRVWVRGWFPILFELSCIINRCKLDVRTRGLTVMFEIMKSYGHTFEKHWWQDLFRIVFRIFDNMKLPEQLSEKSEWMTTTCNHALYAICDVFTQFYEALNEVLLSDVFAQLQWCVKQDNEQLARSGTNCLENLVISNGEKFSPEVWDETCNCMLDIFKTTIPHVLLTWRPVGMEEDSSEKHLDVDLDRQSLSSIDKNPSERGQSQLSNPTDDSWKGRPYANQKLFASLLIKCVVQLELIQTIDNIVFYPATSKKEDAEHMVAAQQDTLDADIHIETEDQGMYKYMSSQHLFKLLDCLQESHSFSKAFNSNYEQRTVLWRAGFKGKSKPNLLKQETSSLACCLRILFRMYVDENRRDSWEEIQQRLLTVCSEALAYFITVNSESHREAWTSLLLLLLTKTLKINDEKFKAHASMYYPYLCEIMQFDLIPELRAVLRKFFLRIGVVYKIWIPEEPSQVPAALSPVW
UniProt Q9Y4C2: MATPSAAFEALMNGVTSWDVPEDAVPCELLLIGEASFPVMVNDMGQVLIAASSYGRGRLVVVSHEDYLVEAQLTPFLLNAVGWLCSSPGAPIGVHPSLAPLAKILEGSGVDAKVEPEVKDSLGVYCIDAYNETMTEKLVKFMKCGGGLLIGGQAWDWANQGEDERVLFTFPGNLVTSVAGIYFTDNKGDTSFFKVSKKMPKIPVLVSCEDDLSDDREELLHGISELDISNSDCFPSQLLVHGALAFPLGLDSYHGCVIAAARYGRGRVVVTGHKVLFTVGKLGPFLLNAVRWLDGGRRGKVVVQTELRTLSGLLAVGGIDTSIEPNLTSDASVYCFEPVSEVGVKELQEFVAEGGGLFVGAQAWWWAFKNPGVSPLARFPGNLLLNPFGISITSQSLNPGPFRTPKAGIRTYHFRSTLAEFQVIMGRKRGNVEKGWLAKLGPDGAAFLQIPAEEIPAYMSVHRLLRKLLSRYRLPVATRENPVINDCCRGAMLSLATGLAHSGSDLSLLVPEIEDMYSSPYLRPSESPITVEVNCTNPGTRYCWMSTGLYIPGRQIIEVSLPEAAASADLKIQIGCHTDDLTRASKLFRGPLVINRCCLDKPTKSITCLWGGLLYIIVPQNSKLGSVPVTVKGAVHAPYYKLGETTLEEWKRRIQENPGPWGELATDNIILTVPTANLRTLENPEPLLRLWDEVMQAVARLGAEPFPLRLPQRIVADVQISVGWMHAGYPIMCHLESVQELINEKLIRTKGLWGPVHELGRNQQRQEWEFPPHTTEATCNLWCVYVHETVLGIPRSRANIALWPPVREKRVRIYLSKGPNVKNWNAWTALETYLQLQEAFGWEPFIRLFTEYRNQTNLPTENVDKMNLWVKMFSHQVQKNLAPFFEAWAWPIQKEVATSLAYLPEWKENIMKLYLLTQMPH
UniProt Q9Y5X3: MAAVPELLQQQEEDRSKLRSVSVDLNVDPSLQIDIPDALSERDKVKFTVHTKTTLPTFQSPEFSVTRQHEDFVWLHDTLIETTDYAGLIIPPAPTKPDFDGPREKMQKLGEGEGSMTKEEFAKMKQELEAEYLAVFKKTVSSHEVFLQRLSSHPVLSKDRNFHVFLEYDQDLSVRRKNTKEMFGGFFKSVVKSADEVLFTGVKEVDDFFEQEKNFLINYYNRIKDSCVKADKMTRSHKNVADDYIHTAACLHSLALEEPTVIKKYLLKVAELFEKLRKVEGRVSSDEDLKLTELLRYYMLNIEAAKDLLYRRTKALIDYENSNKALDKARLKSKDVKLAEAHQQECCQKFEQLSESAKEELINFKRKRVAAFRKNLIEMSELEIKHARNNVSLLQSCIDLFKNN
UniProt Q9Y4J8: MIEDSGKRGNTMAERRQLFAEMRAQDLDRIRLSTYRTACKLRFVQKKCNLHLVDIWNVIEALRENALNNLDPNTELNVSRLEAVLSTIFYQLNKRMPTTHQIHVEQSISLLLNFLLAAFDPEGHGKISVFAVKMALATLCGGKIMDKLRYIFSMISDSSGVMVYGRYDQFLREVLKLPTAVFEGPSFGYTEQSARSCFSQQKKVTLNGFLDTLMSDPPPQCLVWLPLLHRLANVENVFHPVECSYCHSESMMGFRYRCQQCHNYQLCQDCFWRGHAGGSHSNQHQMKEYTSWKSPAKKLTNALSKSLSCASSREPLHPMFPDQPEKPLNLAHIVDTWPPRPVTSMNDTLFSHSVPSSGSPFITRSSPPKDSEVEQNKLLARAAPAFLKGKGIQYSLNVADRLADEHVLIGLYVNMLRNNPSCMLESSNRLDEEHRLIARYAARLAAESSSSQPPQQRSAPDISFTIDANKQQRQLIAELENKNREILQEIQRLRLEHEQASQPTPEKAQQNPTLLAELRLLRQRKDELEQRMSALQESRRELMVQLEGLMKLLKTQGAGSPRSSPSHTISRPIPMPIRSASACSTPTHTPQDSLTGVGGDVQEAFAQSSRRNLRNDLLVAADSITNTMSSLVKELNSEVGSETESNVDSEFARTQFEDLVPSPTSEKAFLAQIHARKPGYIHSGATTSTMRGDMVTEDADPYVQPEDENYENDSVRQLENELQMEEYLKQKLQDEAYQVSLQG
UniProt Q9Y4B6: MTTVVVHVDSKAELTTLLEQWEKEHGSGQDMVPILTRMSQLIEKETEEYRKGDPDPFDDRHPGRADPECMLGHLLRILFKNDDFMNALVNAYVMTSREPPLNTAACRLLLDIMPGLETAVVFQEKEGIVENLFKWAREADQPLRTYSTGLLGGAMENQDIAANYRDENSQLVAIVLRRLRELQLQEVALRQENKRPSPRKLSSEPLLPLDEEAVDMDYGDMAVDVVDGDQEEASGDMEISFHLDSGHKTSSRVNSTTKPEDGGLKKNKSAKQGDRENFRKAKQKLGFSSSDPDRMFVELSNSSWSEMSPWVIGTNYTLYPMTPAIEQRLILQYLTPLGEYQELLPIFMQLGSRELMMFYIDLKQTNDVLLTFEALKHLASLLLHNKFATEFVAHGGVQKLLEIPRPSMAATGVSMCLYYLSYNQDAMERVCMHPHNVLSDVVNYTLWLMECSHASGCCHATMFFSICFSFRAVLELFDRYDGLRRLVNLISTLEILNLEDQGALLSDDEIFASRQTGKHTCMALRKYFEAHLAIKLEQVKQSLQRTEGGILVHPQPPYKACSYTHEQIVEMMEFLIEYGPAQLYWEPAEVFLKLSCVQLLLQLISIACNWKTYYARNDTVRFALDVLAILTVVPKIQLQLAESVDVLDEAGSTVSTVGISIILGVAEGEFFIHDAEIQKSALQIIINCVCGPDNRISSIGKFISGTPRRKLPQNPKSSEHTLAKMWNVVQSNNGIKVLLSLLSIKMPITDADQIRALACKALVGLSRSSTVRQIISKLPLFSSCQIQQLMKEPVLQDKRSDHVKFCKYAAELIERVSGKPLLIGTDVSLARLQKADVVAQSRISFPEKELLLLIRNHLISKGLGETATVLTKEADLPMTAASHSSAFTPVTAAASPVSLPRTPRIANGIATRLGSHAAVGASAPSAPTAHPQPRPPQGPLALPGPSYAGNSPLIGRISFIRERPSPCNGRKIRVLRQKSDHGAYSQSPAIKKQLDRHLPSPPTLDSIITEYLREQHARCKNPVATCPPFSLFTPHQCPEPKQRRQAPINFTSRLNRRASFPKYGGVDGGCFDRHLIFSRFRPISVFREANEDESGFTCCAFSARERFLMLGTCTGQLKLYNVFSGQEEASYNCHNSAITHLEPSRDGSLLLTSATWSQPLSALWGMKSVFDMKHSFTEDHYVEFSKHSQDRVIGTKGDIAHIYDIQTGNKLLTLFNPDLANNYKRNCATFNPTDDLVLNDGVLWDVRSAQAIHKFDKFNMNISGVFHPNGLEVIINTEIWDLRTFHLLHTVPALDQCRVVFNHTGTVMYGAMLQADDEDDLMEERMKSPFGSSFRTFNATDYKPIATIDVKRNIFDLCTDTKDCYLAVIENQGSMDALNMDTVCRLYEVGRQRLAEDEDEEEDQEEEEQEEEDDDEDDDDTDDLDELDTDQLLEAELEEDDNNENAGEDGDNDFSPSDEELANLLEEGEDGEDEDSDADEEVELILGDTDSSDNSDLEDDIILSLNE
UniProt Q9Y4W6: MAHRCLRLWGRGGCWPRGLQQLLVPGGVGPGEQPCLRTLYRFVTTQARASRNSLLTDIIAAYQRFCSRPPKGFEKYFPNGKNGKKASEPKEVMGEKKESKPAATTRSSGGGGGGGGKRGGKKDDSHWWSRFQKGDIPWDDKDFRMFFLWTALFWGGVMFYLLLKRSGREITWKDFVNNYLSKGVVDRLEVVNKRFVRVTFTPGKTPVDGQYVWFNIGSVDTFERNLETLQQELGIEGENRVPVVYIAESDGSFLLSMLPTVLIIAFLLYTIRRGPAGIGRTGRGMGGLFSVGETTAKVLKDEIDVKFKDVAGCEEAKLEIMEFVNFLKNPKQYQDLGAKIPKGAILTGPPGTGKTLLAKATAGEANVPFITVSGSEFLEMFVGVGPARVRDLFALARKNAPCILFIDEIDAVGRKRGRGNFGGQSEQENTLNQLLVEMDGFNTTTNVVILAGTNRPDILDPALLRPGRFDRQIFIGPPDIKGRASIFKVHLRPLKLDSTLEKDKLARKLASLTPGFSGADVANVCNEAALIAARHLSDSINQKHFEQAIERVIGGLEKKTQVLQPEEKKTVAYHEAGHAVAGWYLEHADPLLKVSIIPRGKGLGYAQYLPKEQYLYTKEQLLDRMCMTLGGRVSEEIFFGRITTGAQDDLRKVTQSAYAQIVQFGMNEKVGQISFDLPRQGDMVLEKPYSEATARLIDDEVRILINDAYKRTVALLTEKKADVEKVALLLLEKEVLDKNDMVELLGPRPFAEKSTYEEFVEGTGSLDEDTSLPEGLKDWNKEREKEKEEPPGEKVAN
UniProt Q9Y5K5, whole entry: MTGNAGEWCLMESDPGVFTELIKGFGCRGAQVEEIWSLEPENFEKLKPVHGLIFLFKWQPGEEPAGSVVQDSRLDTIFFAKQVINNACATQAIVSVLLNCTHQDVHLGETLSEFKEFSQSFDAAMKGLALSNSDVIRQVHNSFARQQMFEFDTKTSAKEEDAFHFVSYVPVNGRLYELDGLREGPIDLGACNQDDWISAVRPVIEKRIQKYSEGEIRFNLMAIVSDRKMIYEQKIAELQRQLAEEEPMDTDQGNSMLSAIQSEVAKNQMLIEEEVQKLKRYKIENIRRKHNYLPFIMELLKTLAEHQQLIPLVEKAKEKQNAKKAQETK

compound: COC(=O)C#Cc1ccccc1 [methyl 3-phenylpropiolate]; experiment: log2 ratio of iodoacetamide-alkyne labeling of the cysteine site, DMSO over compound (competition); higher = stronger covalent engagement of the cysteine by the compound, active = 1 or more; conditions: 500 µM; treatment time 1 h; system: HEK293T cell lysate
Procedure, shortened: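 Electrophile (500 µM) or vehicle was added to HEK293T lysate (2 mg/mL) for 1 h at ambient temperature before iodoacetamide alkyne labelling (1 h) and click coupling to sCIP-TMT reagents. After pooling, overnight trypsin digestion at 37 °C, streptavidin enrichment and acid elution, peptides were measured by Orbitrap Eclipse LC-MS/MS with FAIMS and quantified in FragPipe. Each cysteine's log2 competition ratio compares mean control-channel with mean compound-channel reporter intensity, control over compound. Data came from duplicate channels across three replicates, excluding cysteines quantified in only one replicate.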

log2 ratio of iodoacetamide-alkyne labeling, inactive:
TACC3 C662 (UniProt Q9Y6A5) 0.32, ARFGEF2 C1147 (UniProt Q9Y6D5) 0.255, TCAF1 C488 (UniProt Q9Y4C2) 0.36, TLN1 C1939 (UniProt Q9Y490) 0.202, SNX5 C397 (UniProt Q9Y5X3) 0.00495, UniProt Q9Y4C1_C947 0.215, TELO2 C367 (UniProt Q9Y4R8) 0.0485, YTHDF2 C482 (UniProt Q9Y5A9) 0.44, TCAF1 C576 (UniProt Q9Y4C2) -0.325, ARFGEF2 C1450 (UniProt Q9Y6D5) 0.55, DTNA C583 (UniProt Q9Y4J8) 0.31, TLN1 C1558 (UniProt Q9Y490) 0.288, UniProt Q9Y5Q3_C64 0.299, WASF2 C27 (UniProt Q9Y6W5) -0.177, TRAPPC1 C115 (UniProt Q9Y5R8) 0.0989, USP16 C618 (UniProt Q9Y5T5) 0.249, ARFGEF2 C1206 (UniProt Q9Y6D5) 0.178, UniProt Q9Y4B6_C1070 0.183, CLIC4 C100 (UniProt Q9Y696) 0.0178, ALG5 C194 (UniProt Q9Y673) 0.233, MAP3K4 C163 (UniProt Q9Y6R4) 0.0336, UniProt Q9Y678_C706 0.389, AFG3L2 C402 (UniProt Q9Y4W6) 0.253, LSM4 C32 (UniProt Q9Y4Z0) 0.146, FHOD1 C31 (UniProt Q9Y613) 0.248, TELO2 C628 (UniProt Q9Y4R8) 0.243, TCAF1 C144 (UniProt Q9Y4C2) 0.315, UTP18 C90 (UniProt Q9Y5J1) 0.294, USP15 C264 (UniProt Q9Y4E8) 0.528, UCHL5 C9 (UniProt Q9Y5K5) 0.147, USP16 C631 (UniProt Q9Y5T5) 0.617
